No constants are given. Whether binding was seen depends on the method and setting. Binding calls can cover weak binding; strength is not graded here.
Columns and labels:
[1] = target: T1, biotinylated CD200R1 (UniProt Q8TD46 29-265, biotin (site not stated)); assay: AlphaScreen or HTRF; AlphaLISA screen in 384-well plates, 20 µL; 0.3 nM biotinylated CD200R1 (streptavidin Donor beads) with His-tagged cell-free library proteins at one dilution (1/25; anti-6His Acceptor beads); ImmunoAssay buffer, room temperature; positive = signal 3-fold above the mean of the plates, confirmed with a new synthesis batch; only the target purified
T1 construct: CD200R1 (CD200 receptor 1), soluble biotinylated protein; Held on streptavidin Donor beads in the AlphaLISA; also called CD200R1-(biot)
T1 sequence (looked up): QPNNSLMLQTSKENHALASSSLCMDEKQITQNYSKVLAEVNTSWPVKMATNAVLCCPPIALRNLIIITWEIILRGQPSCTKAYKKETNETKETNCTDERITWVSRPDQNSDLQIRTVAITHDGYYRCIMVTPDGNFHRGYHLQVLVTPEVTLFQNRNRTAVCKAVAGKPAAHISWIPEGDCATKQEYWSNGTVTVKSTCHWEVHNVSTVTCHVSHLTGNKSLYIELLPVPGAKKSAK

[2] = target: T1, biotinylated CD200R1; assay: AlphaScreen or HTRF; AlphaLISA; 0.3 nM CD200R1-(biot) incubated with 3 nM CD200-Fc, dose response (0.1 to 100 nM) of BOC1-His; signal from CD200R1-(biot) with BOC1-His; both purified
[3] = target: T1, biotinylated CD200R1; assay: AlphaScreen or HTRF; AlphaLISA; CD200R1-(biot)/CD200-His or CD200R1-(biot)/BOC1-His complex (each protein at 3 nM) with an anti-CD200R1 antibody (30 nM); read as remaining activity and % inhibition; both purified
[4] = target: T1, biotinylated CD200R1; assay: AlphaScreen or HTRF; AlphaLISA competition; 0.3 nM CD200R1-(biot) and 3 nM CD200-His, or the CD200R1-(biot)/BOC1-His complex, with a dose response of CD200-Fc (0.1 to 100 nM), 1 h at room temperature; read as % dissociation of the complex; both purified

Substance | binding [1] | binding [2] | binding [3] | binding [4]
BOC5 | binds | – | – | –
BOC1-His (Bacteroides genus (human gut microbiota)) | binds | binds | binds | binds
